Consider one substance from article PMC9120517.

By UniProt entry, the sequences of proteins in these tests, tags left out.
UniProt P04350: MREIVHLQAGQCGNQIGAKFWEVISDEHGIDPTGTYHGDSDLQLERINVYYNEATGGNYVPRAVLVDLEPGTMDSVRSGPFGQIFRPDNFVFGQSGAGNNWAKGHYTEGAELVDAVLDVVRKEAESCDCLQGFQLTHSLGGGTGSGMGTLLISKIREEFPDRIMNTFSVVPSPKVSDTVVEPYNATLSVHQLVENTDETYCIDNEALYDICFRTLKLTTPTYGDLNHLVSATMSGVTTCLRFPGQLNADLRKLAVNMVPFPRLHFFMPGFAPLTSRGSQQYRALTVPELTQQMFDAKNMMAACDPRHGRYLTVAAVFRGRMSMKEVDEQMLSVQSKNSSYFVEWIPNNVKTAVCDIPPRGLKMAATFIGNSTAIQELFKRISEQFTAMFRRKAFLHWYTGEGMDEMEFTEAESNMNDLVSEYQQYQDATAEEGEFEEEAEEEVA
UniProt P35579: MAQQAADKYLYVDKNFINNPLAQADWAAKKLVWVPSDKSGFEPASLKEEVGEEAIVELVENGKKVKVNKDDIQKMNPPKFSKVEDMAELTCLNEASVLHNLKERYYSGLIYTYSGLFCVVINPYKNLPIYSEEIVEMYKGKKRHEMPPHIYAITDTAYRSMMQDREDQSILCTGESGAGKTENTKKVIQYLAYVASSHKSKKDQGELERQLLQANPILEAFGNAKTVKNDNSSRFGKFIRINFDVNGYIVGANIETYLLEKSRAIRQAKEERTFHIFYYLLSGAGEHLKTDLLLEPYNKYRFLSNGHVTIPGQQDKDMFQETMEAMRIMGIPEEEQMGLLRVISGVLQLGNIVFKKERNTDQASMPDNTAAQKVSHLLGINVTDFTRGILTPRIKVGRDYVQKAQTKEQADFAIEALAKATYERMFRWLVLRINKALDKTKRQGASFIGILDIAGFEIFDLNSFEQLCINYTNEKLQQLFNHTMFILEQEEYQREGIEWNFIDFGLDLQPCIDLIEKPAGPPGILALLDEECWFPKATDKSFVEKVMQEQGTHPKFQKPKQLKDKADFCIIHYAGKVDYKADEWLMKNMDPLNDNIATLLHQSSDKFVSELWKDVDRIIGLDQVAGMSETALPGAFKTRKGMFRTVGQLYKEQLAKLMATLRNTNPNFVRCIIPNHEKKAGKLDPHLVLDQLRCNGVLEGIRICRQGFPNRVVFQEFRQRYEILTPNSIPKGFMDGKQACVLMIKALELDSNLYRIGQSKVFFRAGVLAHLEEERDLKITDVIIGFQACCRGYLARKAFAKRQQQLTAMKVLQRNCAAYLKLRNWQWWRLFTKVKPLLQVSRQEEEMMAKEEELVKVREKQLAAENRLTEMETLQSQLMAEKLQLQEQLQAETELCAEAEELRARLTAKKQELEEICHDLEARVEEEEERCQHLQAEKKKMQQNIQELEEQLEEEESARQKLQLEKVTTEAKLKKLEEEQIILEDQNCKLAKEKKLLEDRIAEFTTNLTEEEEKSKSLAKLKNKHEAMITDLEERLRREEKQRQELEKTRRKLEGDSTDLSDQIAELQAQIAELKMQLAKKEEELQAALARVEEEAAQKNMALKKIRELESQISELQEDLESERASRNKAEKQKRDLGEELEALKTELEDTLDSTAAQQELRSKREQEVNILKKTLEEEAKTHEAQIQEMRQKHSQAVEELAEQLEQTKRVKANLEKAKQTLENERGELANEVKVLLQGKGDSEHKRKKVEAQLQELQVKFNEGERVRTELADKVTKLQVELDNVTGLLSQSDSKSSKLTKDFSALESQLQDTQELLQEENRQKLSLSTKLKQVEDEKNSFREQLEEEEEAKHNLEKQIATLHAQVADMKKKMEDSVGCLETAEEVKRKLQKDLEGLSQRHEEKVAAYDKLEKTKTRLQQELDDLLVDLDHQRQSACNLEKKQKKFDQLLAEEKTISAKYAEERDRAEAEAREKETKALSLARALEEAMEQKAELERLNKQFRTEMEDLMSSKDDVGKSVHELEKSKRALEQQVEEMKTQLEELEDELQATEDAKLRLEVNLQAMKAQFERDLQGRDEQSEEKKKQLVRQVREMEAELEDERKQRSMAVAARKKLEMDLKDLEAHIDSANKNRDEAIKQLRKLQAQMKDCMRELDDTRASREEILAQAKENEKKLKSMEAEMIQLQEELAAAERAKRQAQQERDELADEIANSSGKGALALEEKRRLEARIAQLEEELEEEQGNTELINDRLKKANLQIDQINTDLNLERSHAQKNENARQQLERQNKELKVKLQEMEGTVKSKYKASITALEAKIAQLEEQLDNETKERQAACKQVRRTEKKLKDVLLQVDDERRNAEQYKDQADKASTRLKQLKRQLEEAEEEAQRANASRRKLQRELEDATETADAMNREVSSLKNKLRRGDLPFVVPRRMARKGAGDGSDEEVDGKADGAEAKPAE

Results are given in words; binding and its absence hold for the method and conditions named. In cells and extracts the contact can be indirect. Some binding calls cover weakened binding; strength is not graded here.

The assay has as its target Human tubulin beta class IVa (TUBB4A) (human (endogenous in DU145)) (UniProt P04350). Nature of the assay: co-IP; endogenous TUBB4A and MYH9 in DU145 cell lysate; IgG or specific antibody, protein A/G agarose; input diluted 1/10.

Regarding “MYH9 (myosin heavy chain 9) (from UniProt P35579 1-1960)”, the binding result is on record as “binds”.
